Measured values reported in PubChem BioAssay AID2685 (National Center for Advancing Translational Sciences (NCATS), 2010).
The other results are listed elsewhere or left out. Shown are side measurements of this screen, not its main read-out; they come without a call. Most of these compounds were active or inconclusive in the main read-out, so they are no random draw. Potencies come from curve fits of mixed quality, noted in brackets.

Test: qHTS Assay for Lipid Storage Modulators in Drosophila S3 Cells;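 for cell number change: cells counted by Cell Tracker Red CMTPX staining in the red channel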
Conditions: BODIPY lipid droplet fluorescence, 18-24 h; for cell number change: measured here: cell count max response, cells fed with added oleic acid
Procedure, shortened: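 Drosophila S3 cells got compounds at several concentrations plus oleic acid (400 uM solution). Laser-scanning cytometry with 488 nm excitation read lipid droplets at 500-530 nm and cells at 575-640 nm. Percent activity was relative to 20 uM Triacsin C.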

[1] = measured here: cell number channel AC50, cells fed with added oleic acid
[2] = measured here: lipid fluorescence (Fed channel) AC50, cells fed with added oleic acid

| Compound | cell number change | AC50 [1] | AC50 [2] |
| --- | --- | --- | --- |
| O=C(CN1C(=O)C2CCCCC2C1=O)OCC(=O)c1ccc(F)cc1 (stereo not given) | 2.84% | 0.103 µM [rising, full curve, poor fit] | 6.51 µM [rising, single point] |
| COc1ccc(-c2noc(CCCC(=O)NC3CCCC3)n2)cc1 | 1.28% |  |  |
| COc1ccc(S(=O)(=O)N2CCN(C(=O)c3cccs3)CC2)cc1 | 5.7% |  | 9.2 µM [rising, single point] |
| CCCCOC(=O)c1[nH]c2c(c1C)C(=O)CC(c1cc(OC)c(OC)c(OC)c1)C2 (stereo not given) |  | 0.92 µM [rising, partial curve] | 1.3 µM [rising, partial curve] |
| COc1ccccc1OP(=O)(O)Oc1ccccc1OC | -44.3% | 29.1 µM [falling, partial curve, poor fit] |  |
| CCOC(=O)CCNC(C(=O)OCC)c1ccccc1 (stereo not given) | -40% | 25.9 µM [falling, single point] | 23.1 µM [falling, partial curve] |
| Cc1cc(C)cc(OCC(=O)Nc2ccc(-n3cnnn3)cc2)c1 | -7.91% |  | 7.31 µM [rising, partial curve, poor fit] |
| COc1ccc(NC(=O)NCCCN2CCCC2=O)cc1 | -9.68% |  | 16.4 µM [falling, partial curve, poor fit] |
| CCc1ccc(N2CN(CCc3ccccc3)CNC2=S)cc1 | 4.04% |  | 0.651 µM [falling, single point] |
| CNC(=S)NNC(=O)c1sccc1OCc1ccccc1 | 137% | 23.1 µM [rising, single point] |  |
| CCS(=O)(=O)N1Cc2ccccc2CC1C(=O)Nc1nc2ccc(C)cc2s1 (stereo not given) | -66.7% |  | 1.3 µM [rising, full curve] |
| Cc1ccc(S(=O)(=O)n2nc(OC(=O)c3ccccc3C)cc2N)cc1 | 8.33% |  |  |
| CC(C)Cn1c(SCC(=O)N2CCN(C(=O)c3ccco3)CC2)nc2ccccc2c1=O | 54.6% |  | 3.26 µM [rising, single point] |
| COc1cc2c(-c3ccc(O)cc3)nc3c(c(C)nn3-c3ccccc3)c2cc1OC | -31.7% | 29.1 µM [falling, single point] | 7.31 µM [falling, partial curve, poor fit] |
| N#Cc1ccc(S(=O)(=O)NCC(=O)OCC(=O)NCCc2ccccc2)cc1 | 38.3% | 18.4 µM [rising, partial curve, poor fit] |  |
| O=C(CCn1nnc2ccccc21)Nc1nnc(-c2ccccc2F)s1 | -9.29% |  |  |
| COc1cccc(C(=O)O/N=C(\N)c2ccccn2)c1 | 46% | 8.2 µM [rising, partial curve, poor fit] |  |
| CCN(CC)CCNC(=O)NC1CCCCC1 | -16.7% |  | 5.17 µM [falling, full curve] |
| CCCCN(CC)S(=O)(=O)c1ccc(C(=O)Nc2nnc(-c3ccccc3Cl)o2)cc1 |  | 1.46 µM [rising, partial curve] | 1.3 µM [rising, full curve] |

| Compound | cell number change | AC50 [1] | AC50 [2] |
| --- | --- | --- | --- |
| Cc1cnc(NC(=O)CN2C(=O)C3CC=CCC3C2=O)s1 (stereo not given) | 3.41% |  |  |
| O=C(NCc1cccnc1)/C(=C\c1ccc(-c2ccc(Cl)c(Cl)c2)o1)S(=O)(=O)c1ccccc1 | -54.8% | 18.4 µM [falling, single point] | 0.13 µM [falling, full curve, poor fit] |
| O=C(Nc1nnc(S(=O)(=O)N2CCCCCC2)s1)c1ccccc1Cl | 9.28% |  | 6.51 µM [falling, single point] |
| Cc1cccc(NC(=S)NC(=O)C2CC2)c1 | -5.78% |  | 2.31 µM [falling, full curve, poor fit] |
| O=C(COC(=O)C12CC3CC(CC(Br)(C3)C1)C2)Nc1cccnc1Cl | 45.1% | 0.82 µM [rising, full curve] | 5.8 µM [rising, partial curve] |
| COc1ccc(N2C(=O)C3CCCN3C2c2cccc(OC)c2)cc1 (stereo not given) | 10.8% |  |  |
| COc1cc2c(cc1OC)C(COc1ccccc1OC)N(C(=O)C(C)(C)C)CC2 (stereo not given) | -60.4% | 0.326 µM [falling, full curve] | 8.2 µM [falling, partial curve] |
| CC(=O)Nc1ccccc1C(=O)N1CC(C)OC(C)C1 (stereo not given) | -16.9% |  | 2.59 µM [falling, full curve, poor fit] |
| COc1ccc(C(CNC(=O)c2ccc(S(=O)(=O)Nc3ccccc3F)cc2)N(C)C)cc1 (stereo not given) | 1.08% |  |  |
| COc1cc(C(=S)N(C)C)ccc1O | -100% | 25.9 µM [falling, partial curve] | 23.1 µM [falling, partial curve] |
| NC(=O)C1CCN(Cc2nc3ccccc3c(=O)[nH]2)CC1 | 3.96% |  | 23.1 µM [falling, partial curve] |
| Cn1c(C(=O)NCCN2CCc3ccccc3C2)cc2c(=O)[nH]c3ccccc3c21 | -25.7% |  | 29.1 µM [falling, single point] |
| CC1CCC/C(=C\Nc2ccc(C(=O)O)c(O)c2)C1=O (stereo not given) | 12.3% |  |  |
| O=C(O)CN(C1CCCCC1)S(=O)(=O)c1ccc(F)cc1 | -26.1% | 1.3 µM [falling, full curve, poor fit] | 0.517 µM [falling, full curve] |
| COc1ccc(O)c(/C=N/NC(=O)c2ccc(N3CCCC3=O)cc2)c1 | 6.67% |  |  |
| CCN1CCN(c2nc3c(c(=O)[nH]c(=O)n3C)n2CCSc2nc3ccccc3s2)CC1 |  |  | 2.06 µM [rising, single point] |
| CCOC(=O)c1csc(NC(=O)c2ccccc2)n1 | -13% |  |  |
| COc1ccc(-c2noc(CSc3nnc(Cc4ccccc4)n3-c3ccc(Cl)cc3)n2)cc1 | 150% | 16.4 µM [rising, partial curve] | 10.3 µM [rising, partial curve] |
| COc1cc2c(cc1OC)CN(C(=O)c1sc(-c3cnccn3)nc1C)CC2 | 24% |  | 0.517 µM [rising, partial curve, poor fit] |

Looked up above.
Value of Cc1cnc(NC(=O)CN2C(=O)C3CC=CCC3C2=O)s1 (stereo not given) under cell number change: 3.41%
Value of COc1ccc(-c2noc(CCCC(=O)NC3CCCC3)n2)cc1 under cell number change: 1.28%
